# Reference: the supplement of paper PMC4635364
# Where a name gives a salt, the structure may show the parent alone. This is one part of the list. Repeats in this data set agree poorly, so a single value says little.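 Human fetal ventral-midbrain neural progenitor line ReNCell VM, differentiated without mitogens. Images stained for doublecortin (early neurons) or tyrosine hydroxylase (dopaminergic neurons) were scored by blinded raters against untreated wells (0 = no change). Repeats and both raters were averaged, and compounds averaging 2 or higher were picked as hits for retesting.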
# Tests used:
# ReNCell VM [1] = experiment: neuronal differentiation score (DCX+ cell fraction vs untreated, manual image score) (score (-3 to 3)); higher = more neuronal differentiation; settings: 2 uM, 2 weeks
# ReNCell VM [2] = experiment: dopaminergic neuron differentiation score (TH+ cell fraction vs untreated, manual image score) (score (0 to 3)); higher = more TH+ dopaminergic neuron differentiation; settings: 2 uM, 4 weeks, BDNF 10 ng/ml + GDNF 10 ng/ml
compound,measurement,setting,value
CCc1cn([C@H]2C[C@H](O)[C@@H](CO)O2)c(=O)[nH]c1=O,neuronal differentiation score,ReNCell VM [1]; library: Spectrum,inactive: 0
same,dopaminergic neuron differentiation score,ReNCell VM [2]; library: Spectrum,inactive: 0
"O=c1cc(-c2cc3ccccc3oc2=O)c2ccc(O)cc2o1 [7'-Hydroxy-[3,4']bichromenyl-2,2'-dione]",neuronal differentiation score,ReNCell VM [1]; library: Natural,inactive: 0
same,dopaminergic neuron differentiation score,ReNCell VM [2]; library: Natural,inactive: 0
COc1cc(NS(=O)(=O)c2ccc(N)cc2)ncn1 [Sulfamonomethoxine],neuronal differentiation score,ReNCell VM [1]; library: Prestwick,inactive: 0
same,dopaminergic neuron differentiation score,ReNCell VM [2]; library: Prestwick,inactive: 0
CC(C)(C#N)c1cc(Cn2cncn2)cc(C(C)(C)C#N)c1 [Anastrozole],neuronal differentiation score,ReNCell VM [1]; library: Prestwick,inactive: 0
same,dopaminergic neuron differentiation score,ReNCell VM [2]; library: Prestwick,inactive: 0
O=C(CNC(=O)c1ccc(Cl)cc1)NO,neuronal differentiation score,ReNCell VM [1]; library: Spectrum,inactive: 0
same,dopaminergic neuron differentiation score,ReNCell VM [2]; library: Spectrum,inactive: 0
FC(F)(F)c1ccc(/C=C/c2nc(COc3ccc(CCCCn4ccnn4)cc3)co2)cc1,neuronal differentiation score,ReNCell VM [1]; library: Tocriscreen,inactive: 0
same,dopaminergic neuron differentiation score,ReNCell VM [2]; library: Tocriscreen,inactive: 0
Cc1cc(=O)oc2cc(O)c(O)cc12,neuronal differentiation score,ReNCell VM [1]; library: Spectrum,inactive: 0
same,dopaminergic neuron differentiation score,ReNCell VM [2]; library: Spectrum,inactive: 0
"COc1ccc2cnoc(=O)c2c1OC [7,8-dimethoxy-benzo[d][1,2]oxazin-1-one]",neuronal differentiation score,ReNCell VM [1]; library: Natural,inactive: 0
same,dopaminergic neuron differentiation score,ReNCell VM [2]; library: Natural,inactive: 0
COc1cc(C=CC(=O)c2c(O)cc(C)oc2=O)ccc1O,neuronal differentiation score,ReNCell VM [1]; library: Natural,inactive: -3
same,dopaminergic neuron differentiation score,ReNCell VM [2]; library: Natural,inactive: 0
COc1cc(C)c2c(c1C=O)Oc1c(c(C)c(O)c3c1C(O)OC3=O)OC2=O (centres undefined) [stictic acid],neuronal differentiation score,ReNCell VM [1]; library: Natural,inactive: 0
same,dopaminergic neuron differentiation score,ReNCell VM [2]; library: Natural,inactive: 0
C[C@H]1[C@H]2CC[C@H]3[C@@H]4CC=C5C[C@@H](N(C)C)CC[C@]5(C)[C@H]4CC[C@]23CN1C [Conessine],neuronal differentiation score,ReNCell VM [1]; library: Phytochemical,inactive: 1
same,dopaminergic neuron differentiation score,ReNCell VM [2]; library: Phytochemical,inactive: 0
O=C(O)[C@H](O)[C@@](O)(Cc1ccc(O)cc1)C(=O)O [piscidic acid],neuronal differentiation score,ReNCell VM [1]; library: Natural,inactive: 0
same,dopaminergic neuron differentiation score,ReNCell VM [2]; library: Natural,inactive: 0
O=C(O)/C(=C\c1c(C(=O)O)[nH]c2cc(Cl)cc(Cl)c12)c1ccccc1,neuronal differentiation score,ReNCell VM [1]; library: LOPAC,inactive: 0
same,dopaminergic neuron differentiation score,ReNCell VM [2]; library: LOPAC,inactive: 0
COc1ccc(S(=O)(=O)N2c3ccc(Cl)cc3[C@](O)(c3ccccc3Cl)[C@@H]2C(=O)N2CCC[C@H]2C(N)=O)cc1OC,neuronal differentiation score,ReNCell VM [1]; library: Tocriscreen,inactive: 0
same,dopaminergic neuron differentiation score,ReNCell VM [2]; library: Tocriscreen,inactive: 0
CCN(CC)C(=O)c1cccnc1,neuronal differentiation score,ReNCell VM [1]; library: Spectrum,inactive: 0
same,dopaminergic neuron differentiation score,ReNCell VM [2]; library: Spectrum,inactive: 0
C[C@H]1[C@H](C)CC[C@]2(C(=O)O)CC[C@]3(C)C(=CC[C@@H]4[C@@]5(C)C[C@@H](O)[C@H](O)[C@@](C)(CO)[C@@H]5CC[C@]43C)[C@H]12,neuronal differentiation score,ReNCell VM [1]; library: Spectrum,inactive: 0
same,dopaminergic neuron differentiation score,ReNCell VM [2]; library: Spectrum,inactive: 0
CC12CCCC(O)(C1)C1CC(C)(C)C1CC2 (stereo not drawn) [beta-CARYOPHYLLENE ALCOHOL],neuronal differentiation score,ReNCell VM [1]; library: Spectrum,inactive: 0
same,dopaminergic neuron differentiation score,ReNCell VM [2]; library: Spectrum,inactive: 0
CC1(C)OC(=O)NC1=O [Dimethadione],neuronal differentiation score,ReNCell VM [1]; library: Prestwick,inactive: 0
same,dopaminergic neuron differentiation score,ReNCell VM [2]; library: Prestwick,inactive: 0
CC(C)NNC(=O)c1ccncc1,neuronal differentiation score,ReNCell VM [1]; library: Spectrum,inactive: 0
same,dopaminergic neuron differentiation score,ReNCell VM [2]; library: Spectrum,inactive: 0
Cc1cc2c(s1)Nc1ccccc1N=C2N1CCN(C)CC1,neuronal differentiation score,ReNCell VM [1]; library: Spectrum,inactive: 1
same,dopaminergic neuron differentiation score,ReNCell VM [2]; library: Spectrum,inactive: 0
CC(=O)NCCCS(=O)(=O)O,neuronal differentiation score,ReNCell VM [1]; library: Spectrum,inactive: 0
same,dopaminergic neuron differentiation score,ReNCell VM [2]; library: Spectrum,inactive: 0
c1ccc([C@H]2CN3CCSC3=N2)cc1 [Levamisole hydrochloride],neuronal differentiation score,ReNCell VM [1]; library: Prestwick,inactive: 0
same,dopaminergic neuron differentiation score,ReNCell VM [2]; library: Prestwick,inactive: 0
O=C(NCCCN1CCCCCC1)C(c1ccccc1)C1CCCCC1 (centres undefined),neuronal differentiation score,ReNCell VM [1]; library: Tocriscreen,inactive: 0
same,dopaminergic neuron differentiation score,ReNCell VM [2]; library: Tocriscreen,inactive: 0
CCN(CC)CCCC(C)Nc1c2ccc(Cl)cc2nc2ccc(OC)cc12 (centres undefined) [Quinacrine dihydrochloride dihydrate],neuronal differentiation score,ReNCell VM [1]; library: Prestwick,inactive: 0
same,dopaminergic neuron differentiation score,ReNCell VM [2]; library: Prestwick,inactive: 0
O=C(NCC(O)CO)c1c(I)c(C(=O)NCC(O)CO)c(I)c(N(CCO)C(=O)CO)c1I (centres undefined) [Ioversol],neuronal differentiation score,ReNCell VM [1]; library: Prestwick,inactive: 0
same,dopaminergic neuron differentiation score,ReNCell VM [2]; library: Prestwick,inactive: 0
O=C(O)c1cc(=O)c2cccc(O)c2[nH]1,neuronal differentiation score,ReNCell VM [1]; library: Spectrum,inactive: 0
same,dopaminergic neuron differentiation score,ReNCell VM [2]; library: Spectrum,inactive: 0
"Nc1ncnc2c1ncn2[C@@H]1O[C@H](COP(=O)(O)OP(=O)(O)OP(=O)(O)OP(=O)(O)OC[C@@H]2O[C@H](n3cnc4c(N)ncnc43)C(O)[C@@H]2O)[C@H](O)C1O (some centres undefined) [P1,P4-Di(adenosine-5')tetraphosphate triammonium]",neuronal differentiation score,ReNCell VM [1]; library: LOPAC,inactive: 0
same,dopaminergic neuron differentiation score,ReNCell VM [2]; library: LOPAC,inactive: 0

# Some of the entries so far, tab-delimited:
compound	measurement	setting	value
COc1cc(C)c2c(c1C=O)Oc1c(c(C)c(O)c3c1C(O)OC3=O)OC2=O (centres undefined) [stictic acid]	dopaminergic neuron differentiation score	ReNCell VM [2]; library: Natural	inactive: 0
C[C@H]1[C@H]2CC[C@H]3[C@@H]4CC=C5C[C@@H](N(C)C)CC[C@]5(C)[C@H]4CC[C@]23CN1C [Conessine]	neuronal differentiation score	ReNCell VM [1]; library: Phytochemical	inactive: 1
